The text below walks through data of paper PMC11466968.

Chains of the proteins cited; added tags and fusions are not shown. Lines headed by an entry give the natural chain unless they say otherwise; changes in a name come on top. A line that says so, or that is headed by a name, gives the form on record, which may keep a tag or linker.
UniProt O95817: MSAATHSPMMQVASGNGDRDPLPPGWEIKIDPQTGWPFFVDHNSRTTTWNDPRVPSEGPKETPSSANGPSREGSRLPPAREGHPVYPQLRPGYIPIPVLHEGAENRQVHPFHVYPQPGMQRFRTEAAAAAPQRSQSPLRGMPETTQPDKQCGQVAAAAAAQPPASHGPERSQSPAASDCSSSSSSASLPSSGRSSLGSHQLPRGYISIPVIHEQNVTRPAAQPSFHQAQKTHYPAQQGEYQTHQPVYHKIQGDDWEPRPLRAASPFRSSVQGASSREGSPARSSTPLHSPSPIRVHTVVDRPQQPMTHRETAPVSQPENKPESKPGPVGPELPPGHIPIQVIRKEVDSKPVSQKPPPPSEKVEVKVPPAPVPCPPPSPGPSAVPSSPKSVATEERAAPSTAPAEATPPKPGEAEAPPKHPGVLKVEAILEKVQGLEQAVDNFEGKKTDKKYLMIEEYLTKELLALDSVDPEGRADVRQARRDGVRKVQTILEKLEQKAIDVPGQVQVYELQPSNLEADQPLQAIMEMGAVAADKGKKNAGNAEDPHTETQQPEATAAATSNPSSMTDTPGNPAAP
BAG3 (S173/S377/S386D)-4FLAG (O95817, form named): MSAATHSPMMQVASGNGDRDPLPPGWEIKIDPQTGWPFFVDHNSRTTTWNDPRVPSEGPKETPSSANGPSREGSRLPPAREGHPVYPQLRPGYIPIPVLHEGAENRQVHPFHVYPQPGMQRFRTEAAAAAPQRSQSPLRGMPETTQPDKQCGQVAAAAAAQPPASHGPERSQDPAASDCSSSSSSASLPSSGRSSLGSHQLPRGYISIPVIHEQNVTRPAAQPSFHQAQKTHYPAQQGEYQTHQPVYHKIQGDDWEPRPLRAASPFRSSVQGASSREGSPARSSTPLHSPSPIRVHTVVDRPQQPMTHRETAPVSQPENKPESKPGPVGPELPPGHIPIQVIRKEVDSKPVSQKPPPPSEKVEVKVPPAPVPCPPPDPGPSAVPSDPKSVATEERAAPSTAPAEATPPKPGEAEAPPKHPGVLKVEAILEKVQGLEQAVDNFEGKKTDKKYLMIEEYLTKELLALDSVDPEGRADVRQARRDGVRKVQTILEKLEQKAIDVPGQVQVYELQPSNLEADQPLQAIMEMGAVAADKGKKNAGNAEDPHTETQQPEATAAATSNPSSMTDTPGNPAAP
CaMKIIβ (D-S), constitutively active kinase mutant (Q13554, form named): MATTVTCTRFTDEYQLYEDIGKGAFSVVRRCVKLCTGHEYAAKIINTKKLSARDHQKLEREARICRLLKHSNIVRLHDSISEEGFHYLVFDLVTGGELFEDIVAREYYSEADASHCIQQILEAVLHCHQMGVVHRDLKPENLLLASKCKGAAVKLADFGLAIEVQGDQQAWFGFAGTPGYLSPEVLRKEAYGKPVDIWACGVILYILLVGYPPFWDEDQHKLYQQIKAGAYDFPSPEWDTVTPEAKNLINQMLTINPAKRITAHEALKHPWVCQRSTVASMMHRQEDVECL
UniProt Q9BQI3: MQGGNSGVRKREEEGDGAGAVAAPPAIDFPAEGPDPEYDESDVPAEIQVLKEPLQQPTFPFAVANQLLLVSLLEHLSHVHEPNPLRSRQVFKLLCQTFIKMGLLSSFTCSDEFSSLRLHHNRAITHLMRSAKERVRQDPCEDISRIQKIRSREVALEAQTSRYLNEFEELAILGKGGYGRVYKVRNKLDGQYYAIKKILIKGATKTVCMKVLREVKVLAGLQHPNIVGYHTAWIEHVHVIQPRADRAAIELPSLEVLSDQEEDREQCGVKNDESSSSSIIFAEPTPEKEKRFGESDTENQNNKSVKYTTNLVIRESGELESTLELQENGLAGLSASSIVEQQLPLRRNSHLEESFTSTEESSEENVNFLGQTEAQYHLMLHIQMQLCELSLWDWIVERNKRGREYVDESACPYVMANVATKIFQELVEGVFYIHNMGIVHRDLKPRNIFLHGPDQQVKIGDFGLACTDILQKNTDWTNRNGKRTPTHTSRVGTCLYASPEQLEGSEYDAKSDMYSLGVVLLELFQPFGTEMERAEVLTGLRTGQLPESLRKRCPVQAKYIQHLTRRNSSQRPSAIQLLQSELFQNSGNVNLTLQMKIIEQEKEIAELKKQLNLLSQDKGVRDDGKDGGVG

These are yes or no findings as the source states them, for the method shown. Binding seen in cells or lysates may run through a third protein. Some entries that bind do so weakly or less than the wild type.

Test [1] addresses BAG3 (form in the experiment not stated) (UniProt O95817). The experiment in a line: co-IP; HEK293 transfected with the indicated plasmids; treated with MG132 (Fig. 4B, D, E) or not (Fig. 4B, F, G); immunoprecipitation with the indicated antibody; NP-40 alternative lysis buffer, 4 °C.
The target of test [2] is BAG3 (S173/S377/S386D)-4FLAG (UniProt O95817). In words: co-IP; BAG3-/- HEK293 transiently re-expressing wild-type or mutated BAG3-FLAG; treated with MG132; immunoprecipitated with anti-FLAG antibody; HRI detected by blot.
Test [3] has as its target BAG3-4FLAG (wild type) (UniProt O95817). The test is described as above.
The target in test [4] is B-cell lymphoma 2 (Bcl-2)-associated athanogene 3 (BAG3), endogenous (human (endogenous in HEK293)) (UniProt O95817). The experiment in a line: co-IP; endogenous BAG3 and HRI in HEK293 lysate; cells treated with proteasome inhibitor with or without KN-93; NP-40 alternative lysis buffer, 4 °C.
Test [5] deals with BAG3-4FLAG (wild type) (UniProt O95817). In words: co-IP; HEK293 transfected, with overexpressed wild-type CaMKIIβ or kinase-dead CaMKIIβ (K43M); treated with MG132; immunoprecipitated with anti-FLAG antibody.

On to “CaMKIIβ (D-S), constitutively active kinase mutant (from UniProt Q13554 1-291) (domain or fragment)”, for which the binding result in test [1] is on record as “binds”.

“heme-regulated inhibitor (HRI), endogenous (from UniProt Q9BQI3 1-630) (enzyme)”: the binding result (in test [2]; with BAG3-4FLAG (wild type) [3]; in test [4]; with BAG3-4FLAG (wild type) [5]) was “binds” each time.
